Data as given in PubChem BioAssay AID1159578 (Peter MacCallum Cancer Centre, 2015).
The deposit covers about 18,000 reagents; shown is a part drawn at random. In the full data, about 1,030 (5.7%) got an active call. 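Inactive calls also include pools with fewer than 3300 nuclei, whose migration was not assessed.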 Raw values are not corrected between plates. Further read-outs or replicates are left out here. No sequences are given here.

- Purpose: 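Genome-wide hunt for genes controlling movement of lymphatic endothelial cells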 (primary screen)
- System: human lymphatic endothelial cells
- Knock-down reagent: siRNA pool against human genes, 40 nM
- Duration: 48 h after transfection
- Read-out: 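Cells stained with dye and imaged after a scratch; covered wound area and nuclei counted, duplicates averaged, migration set against mock wells and turned into a robust z-score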
- Reading the numbers: migration robust z-score: higher = faster migration into the scratch; nuclei per well: higher = more cells in the well
- Call rule: 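Pools averaging fewer than 3300 nuclei are never called; remaining pools count as changed when migration robust z lies outside -2 to 2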
- Meaning of the calls: active = migration changed; inactive = no migration change, or too few cells

| Gene | PubChem SID | migration robust z-score | migration class with cell-count check | nuclei per well, duplicate mean | call |
| --- | --- | --- | --- | --- | --- |
| OVCA2 | SID255362627 | -0.08 | migration z between -2 and 2; enough cells | 5545 | inactive |
| GATM | SID255349840 | 0.18 | migration z between -2 and 2; enough cells | 6628 | inactive |
| CBFB | SID255348717 | 1.27 | migration z between -2 and 2; enough cells | 5383 | inactive |
| SPMIP6 | SID255361467 | 0.54 | migration z between -2 and 2; enough cells | 5634 | inactive |
| WDR13 | SID255359966 | -0.38 | migration z between -2 and 2; enough cells | 6790 | inactive |
| ICAM3 | SID255350375 | -0.4 | migration z between -2 and 2; enough cells | 5924 | inactive |
| TANK | SID255354739 | 2 | migration z between -2 and 2; enough cells | 5827 | inactive |
| NME1 | SID255351255 | -1.48 | migration z between -2 and 2; enough cells | 3623 | inactive |
| EXOSC4 | SID255358055 | 1.27 | migration z between -2 and 2; enough cells | 4585 | inactive |
| CCND2 | SID255348735 | 2.91 | migration z above 2; enough cells | 5980 | active |
| SLFN13 | SID255363305 | -1.35 | migration z between -2 and 2; enough cells | 4423 | inactive |
| C1orf210 | SID255363417 | -1.13 | migration z between -2 and 2; enough cells | 5926 | inactive |
| FREM2 | SID255365125 | 0.02 | migration z between -2 and 2; enough cells | 6425 | inactive |
| ZNF804B | SID255364183 | -0.74 | migration z between -2 and 2; enough cells | 5506 | inactive |
| TMEM45A | SID255358392 | 1.21 | migration z between -2 and 2; enough cells | 5870 | inactive |
| OR4B1 | SID255362483 | 1.17 | migration z between -2 and 2; enough cells | 6874 | inactive |
| RP9 | SID255352153 | -1.22 | migration z between -2 and 2; enough cells | 5488 | inactive |
| ZC4H2 | SID255358948 | -0.58 | migration z between -2 and 2; enough cells | 4169 | inactive |
| SAMD14 | SID255364068 | 1.17 | migration z between -2 and 2; enough cells | 6680 | inactive |
| CNTFR | SID255348999 | -0.57 | migration z between -2 and 2; enough cells | 5100 | inactive |
| CDKN2A | SID255348848 | 0.68 | migration z between -2 and 2; enough cells | 5748 | inactive |
| MCMBP | SID255360548 | -0.94 | migration z between -2 and 2; enough cells | 5819 | inactive |
| DNAAF4 | SID255363731 | 0.66 | migration z between -2 and 2; enough cells | 4998 | inactive |
| KCNG4 | SID255362058 | 0.08 | migration z between -2 and 2; enough cells | 6664 | inactive |
| ANKS6 | SID255364125 | 0.84 | migration z between -2 and 2; enough cells | 7136 | inactive |
| HLA-E | SID255350212 | 0.64 | migration z between -2 and 2; enough cells | 5570 | inactive |
| TMT1A | SID255356501 | -0.67 | migration z between -2 and 2; enough cells | 4524 | inactive |
| YPEL3 | SID255361074 | 1.03 | migration z between -2 and 2; enough cells | 6836 | inactive |
| HTR1D | SID255350355 | -0.91 | migration z between -2 and 2; enough cells | 6674 | inactive |
| TJAP1 | SID255362089 | -2.08 | migration z below -2; enough cells | 5468 | active |
| CAPSL | SID255362954 | -1.03 | migration z between -2 and 2; enough cells | 6010 | inactive |
| CATSPER1 | SID255362406 | 0.57 | migration z between -2 and 2; enough cells | 5706 | inactive |
| FABP2 | SID255349610 | 0.65 | migration z between -2 and 2; enough cells | 5362 | inactive |
| POLR3B | SID255358790 | -1.84 | migration z between -2 and 2; enough cells | 6033 | inactive |
| FCGRT | SID255349650 | 1.04 | migration z between -2 and 2; enough cells | 7134 | inactive |
| PIAS4 | SID255357800 | -0.98 | migration z between -2 and 2; enough cells | 4710 | inactive |
| DZANK1 | SID255358480 | -0.98 | migration z between -2 and 2; enough cells | 5292 | inactive |
| SPAG6 | SID255354385 | 0.32 | migration z between -2 and 2; enough cells | 5260 | inactive |
| OR4K15 | SID255360854 | 0 | migration z between -2 and 2; enough cells | 5756 | inactive |
